# Experimental data reported in PubChem BioAssay AID493014 (National Center for Advancing Translational Sciences (NCATS), 2011).
# The other results are listed elsewhere or left out. Shown are side measurements of this screen, not its main read-out; they come without a call. Compounds called inactive in the main read-out are mostly missing here. Words in brackets tell the shape of the fitted curve; partial curves, single points and poor fits give uncertain potencies.
# Test: qHTS Assay to Find Inhibitors of Chronic Active B-Cell Receptor Signaling
# Details: ABC-DLBCL IkBa-CBG/CBR reporter, luminescence ratio (green luciferase fused to IkBa over red control in TMD8 lymphoma cells), 4 h
# Method in brief: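 Concentration-response series (up to 46 uM) were applied to TMD8 dual-reporter cells for 4 h at 37C with doxycycline. Green/red ratio, after filter-overlap correction, defined %Activity; red signal alone was normalised to basal cells and zero luminescence.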
# [1] = measured here: CBR red luminescence, cell number
# [2] = measured here: IkBa-CBG green luminescence
Compound,AC50 [1],AC50 [2]
Cc1ccc(OCc2cc(C(=O)NCCc3cccnc3)no2)cc1C,"3.55 µM [falling, full curve, poor fit]",–
CCOC(=O)c1nc(N/N=C/c2ccccc2)sc1Br,"3.98 µM [rising, partial curve, poor fit]",–
CCOc1cccc2cc(C(=O)Nc3cc(C)on3)c(=O)oc12,"3.26 µM [falling, full curve]",–
N#CC1=C(N)Oc2n[nH]c(-c3cccs3)c2C1c1ccncc1 (centres undefined),"14.1 µM [falling, single point]",–
O=C(O)c1ccc(/C=C2\SC(=Nc3ccccc3)N(c3ccccc3)C2=O)cc1,"6.31 µM [falling, full curve]",–
CCOc1cccc(/C=N/Nc2ccc(S(=O)(=O)N(CC)CC)cn2)c1O,"13 µM [rising, partial curve, poor fit]",–
CCOC(=O)C1(Cc2cccc(F)c2)CCN(Cc2ccon2)CC1,"5.62 µM [falling, single point]",–
COCCn1ccc2c(OCC(=O)Nc3cccc(NC(C)=O)c3)cccc2c1=O,"3.66 µM [falling, partial curve]",–
Cc1c(C(C)C)c(=O)n(-c2ccc(S(=O)(=O)NC3CCCCC3)cc2)n1C,"35.5 µM [falling, single point]",–
CCCc1cc(=O)n2[nH]c(C(F)(F)F)nc2n1,"35.5 µM [falling, single point]",–
CCN1CCN(C(=O)C2CCN(C(=O)c3cc4sccc4n3CC)CC2)CC1,"6.51 µM [falling, single point]",–
CCCCCc1ccc(C2=NNC(=O)CC2)cc1,"0.794 µM [rising, full curve, poor fit]",–
S=c1nc(-c2cc(Cl)cc(Cl)c2)[nH][nH]1,"15.8 µM [rising, single point]",–
N/C(=N\OC(=O)CCCOc1ccccc1)c1ccncc1,"17.8 µM [rising, partial curve, poor fit]",–
Cc1cccc(C(=O)Nc2nsc(N)n2)c1,"1.46 µM [falling, full curve, poor fit]",–
FC(F)(F)c1nc2ccccc2c2nc3ccccc3n12,"0.00411 µM [rising, full curve, poor fit]",–
NNC(=O)c1ccccc1OCCOc1ccccc1,"10 µM [falling, partial curve]",–
O=C(NCCC1=CCCCC1)C1CCCN(S(=O)(=O)c2cnc[nH]2)C1 (centres undefined),"1.84 µM [falling, full curve, poor fit]",–
CCn1c(O)c(C=Nc2ccccc2)n(-c2ccccc2)c1=S,"32.6 µM [falling, single point]",–
C1CCN=C(NC23CC4CC(CC(C4)C2)C3)CC1,"3.66 µM [rising, full curve, poor fit]",–
Cc1ccc(C(C)(C)C)cc1S(=O)(=O)Nc1cccc(C(=O)N2CCN(c3ccccn3)CC2)c1,"14.6 µM [falling, single point]",–

# Part of the list above, with tabs.
Compound	AC50 [1]	AC50 [2]
CCOC(=O)c1nc(N/N=C/c2ccccc2)sc1Br	3.98 µM [rising, partial curve, poor fit]	–
CCCCCc1ccc(C2=NNC(=O)CC2)cc1	0.794 µM [rising, full curve, poor fit]	–
C1CCN=C(NC23CC4CC(CC(C4)C2)C3)CC1	3.66 µM [rising, full curve, poor fit]	–

# (cont.)

Compound,AC50 [1],AC50 [2]
O=C(NNc1nc(=O)c2cccnc2s1)c1ccccc1O,"0.562 µM [falling, full curve]",–
c1ccc(-n2nnc(-c3cccnc3)n2)cc1,"11.2 µM [falling, single point]",–
Cc1cc(C)nc(SCC(=O)Nc2ccc(S(=O)(=O)Nc3ncccn3)cc2)n1,"10 µM [falling, partial curve]",–
CCOC(=O)Cn1ccc(NC(=O)COc2ccc(F)cc2F)n1,"3.55 µM [falling, full curve]",–
CO/N=C/C(=N\Nc1cc(OC)cc(OC)c1)C(=O)c1ccccc1,"3.16 µM [falling, single point]",–
COc1ccc(Cl)cc1-c1nc(-c2ccncc2)no1,"6.51 µM [rising, single point]",–
O=C(O)c1cccc(N2C(=O)c3ccc(Oc4ccc(Cl)cc4)cc3C2=O)c1,"8.91 µM [falling, single point]",–
O=C1Nc2ccccc2/C1=N\N=C\c1ccc(O)c(O)c1,"15.8 µM [falling, single point]",–
COc1cc(C(=O)Nc2nc3ccc4nc(C)sc4c3s2)cc(OC)c1OC,"5.01 µM [falling, full curve]",–
O=C(NCCCn1ccnc1)C(=O)c1c[nH]c2ccccc12,"6.31 µM [falling, partial curve]",–
N#CC1=C(N)C(C#N)(C#N)C(c2cccnc2)C2CC(c3ccccc3)CC=C12 (centres undefined),"31.6 µM [rising, single point]","35.5 µM [falling, single point]"
CC(=O)Nc1ccc(S(=O)(=O)Nc2nc3ccccc3nc2Sc2nncn2C)cc1,"35.5 µM [falling, partial curve, poor fit]",–
CCn1c(C)nc2cc(C(=O)OC(C(F)(F)C(F)F)C(F)(F)C(F)F)ccc21,"29.1 µM [rising, partial curve, poor fit]",–
Nc1ccc(-c2nc3ccc(N)cc3s2)cc1,"28.2 µM [falling, single point]",–
O=C(Cn1c(NCCCO)nc2ccccc21)c1ccc(Br)cc1,"35.5 µM [falling, single point]",–
CCCc1nn(C)c(C(=O)Nc2ccc(C(C)(C)C)cc2)c1Cl,"3.26 µM [rising, full curve, poor fit]",–
Cn1cc(-c2nc3ccccc3[nH]2)c2ccccc21,"23.1 µM [falling, single point]",–
CCOC(=O)C1(Cc2cccc(Cl)c2)CCCN(C(=O)c2cc(C)n(C)n2)C1 (centres undefined),–,"5.01 µM [falling, partial curve, poor fit]"
Cc1ccc(S(=O)(=O)N2CCC(C(=O)NNC(=O)c3cccnc3)CC2)cc1,"3.16 µM [rising, partial curve, poor fit]",–
Cc1nc(-c2ccc(NC(=O)/C=C\C(=O)O)cc2)cs1,"22.4 µM [falling, single point]",–
CCCCOc1c(Br)cc(/C=N/O)cc1OCC,"18.4 µM [rising, partial curve]","16.4 µM [falling, single point]"
